US9493426B2, “Quinazolinone derivatives useful as FGFR kinase modulators” (priority 2013, dated 2016)
The structures given here were assigned with low confidence; some may be wrong.

Sequences of proteins named here, by UniProt entry; tags and fusion partners are left off. Residues count along the entry.
UniProt P35968, 20-1356 limits assumed: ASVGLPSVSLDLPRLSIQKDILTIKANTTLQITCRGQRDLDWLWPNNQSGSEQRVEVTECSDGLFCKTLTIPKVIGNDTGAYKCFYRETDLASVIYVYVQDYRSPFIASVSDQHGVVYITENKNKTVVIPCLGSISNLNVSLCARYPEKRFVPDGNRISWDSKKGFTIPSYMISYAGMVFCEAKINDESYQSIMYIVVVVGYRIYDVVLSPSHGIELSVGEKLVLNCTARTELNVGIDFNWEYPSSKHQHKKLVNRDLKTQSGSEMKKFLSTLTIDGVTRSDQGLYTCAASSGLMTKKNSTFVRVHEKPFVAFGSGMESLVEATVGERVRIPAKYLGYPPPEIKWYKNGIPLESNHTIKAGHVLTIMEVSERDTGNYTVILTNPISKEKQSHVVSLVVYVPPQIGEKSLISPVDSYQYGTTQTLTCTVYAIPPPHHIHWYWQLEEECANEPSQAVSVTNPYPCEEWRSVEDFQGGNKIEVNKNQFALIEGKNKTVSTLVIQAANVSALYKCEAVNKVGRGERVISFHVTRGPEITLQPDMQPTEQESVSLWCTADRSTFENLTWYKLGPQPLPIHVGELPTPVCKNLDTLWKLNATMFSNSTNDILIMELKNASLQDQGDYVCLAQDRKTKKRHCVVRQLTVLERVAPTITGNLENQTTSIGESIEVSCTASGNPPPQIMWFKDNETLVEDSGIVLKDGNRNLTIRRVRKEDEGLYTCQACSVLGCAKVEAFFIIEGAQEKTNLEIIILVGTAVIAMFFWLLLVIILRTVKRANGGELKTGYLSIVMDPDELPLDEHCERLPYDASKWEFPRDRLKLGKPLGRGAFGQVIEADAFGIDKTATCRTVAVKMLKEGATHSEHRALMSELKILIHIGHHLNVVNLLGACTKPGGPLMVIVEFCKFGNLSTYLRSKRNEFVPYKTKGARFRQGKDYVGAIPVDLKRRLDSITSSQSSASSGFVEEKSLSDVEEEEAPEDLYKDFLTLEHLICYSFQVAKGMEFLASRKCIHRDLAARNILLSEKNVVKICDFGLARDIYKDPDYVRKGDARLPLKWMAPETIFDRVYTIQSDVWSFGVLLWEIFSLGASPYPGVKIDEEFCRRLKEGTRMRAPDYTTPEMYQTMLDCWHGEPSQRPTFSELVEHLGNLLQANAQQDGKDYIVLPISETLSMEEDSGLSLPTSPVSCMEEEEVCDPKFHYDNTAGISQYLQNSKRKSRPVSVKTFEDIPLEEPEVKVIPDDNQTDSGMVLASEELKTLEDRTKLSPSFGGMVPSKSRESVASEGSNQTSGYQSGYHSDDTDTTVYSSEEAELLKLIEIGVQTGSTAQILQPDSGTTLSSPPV
UniProt P11362, 22-822 limits assumed: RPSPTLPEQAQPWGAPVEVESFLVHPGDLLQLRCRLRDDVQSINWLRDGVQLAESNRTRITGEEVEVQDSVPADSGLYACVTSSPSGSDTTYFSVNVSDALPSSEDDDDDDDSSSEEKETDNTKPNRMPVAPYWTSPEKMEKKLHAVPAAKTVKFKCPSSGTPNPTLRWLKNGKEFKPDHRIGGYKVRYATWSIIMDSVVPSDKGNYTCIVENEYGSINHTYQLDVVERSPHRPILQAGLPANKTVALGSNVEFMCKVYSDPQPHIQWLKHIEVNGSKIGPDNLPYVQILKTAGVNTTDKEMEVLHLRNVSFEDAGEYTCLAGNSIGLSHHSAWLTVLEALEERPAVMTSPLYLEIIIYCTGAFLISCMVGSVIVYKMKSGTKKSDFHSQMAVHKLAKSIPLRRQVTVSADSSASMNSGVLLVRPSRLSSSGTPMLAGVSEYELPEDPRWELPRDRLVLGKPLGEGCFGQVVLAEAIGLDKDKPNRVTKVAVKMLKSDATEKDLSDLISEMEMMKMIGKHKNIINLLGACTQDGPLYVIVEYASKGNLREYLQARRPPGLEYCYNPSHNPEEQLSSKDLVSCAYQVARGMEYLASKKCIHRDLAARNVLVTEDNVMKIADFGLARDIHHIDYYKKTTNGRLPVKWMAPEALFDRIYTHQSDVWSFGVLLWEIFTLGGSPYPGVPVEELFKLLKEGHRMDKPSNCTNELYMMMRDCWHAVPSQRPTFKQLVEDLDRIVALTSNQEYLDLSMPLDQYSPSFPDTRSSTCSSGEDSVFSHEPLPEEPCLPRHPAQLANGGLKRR
UniProt P22455, 22-802 limits assumed: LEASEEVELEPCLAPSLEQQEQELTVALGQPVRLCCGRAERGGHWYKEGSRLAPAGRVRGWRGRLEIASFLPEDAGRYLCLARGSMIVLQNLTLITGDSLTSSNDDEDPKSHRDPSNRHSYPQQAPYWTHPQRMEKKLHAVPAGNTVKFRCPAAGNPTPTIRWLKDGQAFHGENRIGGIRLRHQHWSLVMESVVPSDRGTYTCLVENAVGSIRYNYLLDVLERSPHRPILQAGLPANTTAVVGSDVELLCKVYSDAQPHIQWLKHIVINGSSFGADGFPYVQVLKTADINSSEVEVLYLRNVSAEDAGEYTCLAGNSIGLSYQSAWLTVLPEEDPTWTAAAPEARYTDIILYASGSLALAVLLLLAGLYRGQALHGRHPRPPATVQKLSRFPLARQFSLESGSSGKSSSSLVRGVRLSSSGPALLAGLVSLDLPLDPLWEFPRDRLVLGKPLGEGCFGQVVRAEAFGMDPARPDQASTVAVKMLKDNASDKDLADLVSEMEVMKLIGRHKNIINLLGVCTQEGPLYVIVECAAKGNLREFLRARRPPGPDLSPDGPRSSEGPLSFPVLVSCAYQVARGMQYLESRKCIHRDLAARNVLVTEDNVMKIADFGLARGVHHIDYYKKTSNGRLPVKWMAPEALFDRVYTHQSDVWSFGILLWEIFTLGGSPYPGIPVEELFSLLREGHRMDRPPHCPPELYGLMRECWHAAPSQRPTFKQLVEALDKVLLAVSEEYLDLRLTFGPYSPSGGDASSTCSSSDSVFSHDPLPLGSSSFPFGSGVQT
UniProt P21802, 22-821 limits assumed: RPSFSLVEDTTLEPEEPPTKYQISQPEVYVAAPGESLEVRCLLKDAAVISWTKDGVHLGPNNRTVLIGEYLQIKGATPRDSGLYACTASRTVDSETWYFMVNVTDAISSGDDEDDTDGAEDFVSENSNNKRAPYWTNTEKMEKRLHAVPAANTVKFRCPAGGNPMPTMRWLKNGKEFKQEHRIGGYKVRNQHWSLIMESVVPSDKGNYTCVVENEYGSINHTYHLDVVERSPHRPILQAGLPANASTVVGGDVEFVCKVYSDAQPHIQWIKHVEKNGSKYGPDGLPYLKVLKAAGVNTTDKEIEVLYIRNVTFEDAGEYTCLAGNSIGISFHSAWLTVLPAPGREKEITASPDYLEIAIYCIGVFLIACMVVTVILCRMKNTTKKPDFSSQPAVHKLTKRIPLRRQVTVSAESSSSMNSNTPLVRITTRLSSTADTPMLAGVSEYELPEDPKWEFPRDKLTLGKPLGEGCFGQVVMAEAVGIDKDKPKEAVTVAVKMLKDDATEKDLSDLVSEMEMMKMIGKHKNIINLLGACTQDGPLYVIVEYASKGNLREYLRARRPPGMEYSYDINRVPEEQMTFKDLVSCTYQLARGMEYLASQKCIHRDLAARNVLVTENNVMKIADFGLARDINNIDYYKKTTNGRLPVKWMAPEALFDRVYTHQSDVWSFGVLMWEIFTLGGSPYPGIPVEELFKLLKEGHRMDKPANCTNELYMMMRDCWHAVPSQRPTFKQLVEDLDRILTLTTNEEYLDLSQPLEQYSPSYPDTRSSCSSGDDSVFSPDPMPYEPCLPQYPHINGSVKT
UniProt P22607, 23-806 limits assumed: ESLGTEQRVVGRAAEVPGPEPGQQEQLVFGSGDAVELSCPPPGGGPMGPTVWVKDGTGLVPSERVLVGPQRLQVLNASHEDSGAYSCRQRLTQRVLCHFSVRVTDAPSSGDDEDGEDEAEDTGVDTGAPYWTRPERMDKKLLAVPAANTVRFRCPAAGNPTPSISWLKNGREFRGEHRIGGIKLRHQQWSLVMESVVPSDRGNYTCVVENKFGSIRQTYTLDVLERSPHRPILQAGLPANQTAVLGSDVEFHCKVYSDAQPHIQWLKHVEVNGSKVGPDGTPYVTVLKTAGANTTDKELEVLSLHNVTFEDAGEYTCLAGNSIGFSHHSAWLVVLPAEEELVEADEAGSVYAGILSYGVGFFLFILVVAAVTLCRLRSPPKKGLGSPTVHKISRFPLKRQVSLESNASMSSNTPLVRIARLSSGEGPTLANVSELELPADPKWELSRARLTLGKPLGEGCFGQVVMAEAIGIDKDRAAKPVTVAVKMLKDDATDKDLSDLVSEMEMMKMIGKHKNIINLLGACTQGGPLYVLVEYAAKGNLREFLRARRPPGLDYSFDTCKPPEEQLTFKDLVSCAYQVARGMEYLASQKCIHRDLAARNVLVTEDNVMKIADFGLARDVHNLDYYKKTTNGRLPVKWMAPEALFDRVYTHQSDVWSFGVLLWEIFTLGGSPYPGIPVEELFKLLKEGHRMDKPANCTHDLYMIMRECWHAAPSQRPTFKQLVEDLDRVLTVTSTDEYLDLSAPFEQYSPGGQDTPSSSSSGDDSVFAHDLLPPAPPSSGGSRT

Tests used:
Conditions in all cases: pKd = -log Kd (M)
VEGFR2 = VEGFR2 (Homo sapiens, UniProt P35968); assay: Enzyme binding assay (KINOMEscan) VEGFR2
FGFR1 = FGFR1 (Homo sapiens, UniProt P11362); assay: Enzyme binding assay (KINOMEscan) FGFR1
FGFR4 = FGFR4 (Homo sapiens, UniProt P22455); assay: Enzyme binding assay (KINOMEscan) FGFR4
FGFR2 = FGFR2 (Homo sapiens, UniProt P21802); assay: Enzyme binding assay (KINOMEscan) FGFR2
FGFR3 = FGFR3 (Homo sapiens, UniProt P22607); assay: Enzyme binding assay (KINOMEscan) FGFR3

SMILES: COc1cc(OC)cc(N(CCO)c2ccc3ncn(-c4ccncc4)c(=O)c3c2)c1
- VEGFR2_pKd (VEGFR2): <5.5
- FGFR1_pKd (FGFR1): 6.1
- FGFR4_pKd (FGFR4): 5.5
- FGFR2_pKd (FGFR2): 6.7
- FGFR3_pKd (FGFR3): 6.6
